Source: patent US10414811B2, “Protease-resistant lipidated GLP-1 analogs” (MEDIMMUNE LIMITED, priority 2015, dated 2019)
Like-named read-outs stand apart in the source and are kept apart here. Part of at least one peptide drawing is inferred or uncertain, most often the ends. At least one structure is not confirmed: it was looked up by name or label, or the drawing left a doubt. Numbered stars: 1 amine (or outer) side, 2 acyl side, 3 side chain; on linkers, the order of the positions; unused ones are H or OH. Square brackets hold non-standard residues; d marks the D form. Side chains are listed from the residue outwards. Peptide text beside a SMILES is read from it. * marks the point of attachment. ξ: configuration not given here. C16 diacid = O=C(O)CCCCCCCCCCCCCCC(=O)*; γGlu = O=C(O)[C@H](CCC(=O)[*:2])N[*:1]; αMeF = C[C@](N)(Cc1ccccc1)C(=O)O; ξαMeF = CC(N)(Cc1ccccc1)C(=O)O; αMeK = C[C@](N)(CCCCN)C(=O)O; Lauroyl = CCCCCCCCCCCC(=O)*; ξαMeK = CC(N)(CCCCN)C(=O)O; αMeS = C[C@](N)(CO)C(=O)O; AEEA = NCCOCCOCC(=O)O; Aib = CC(C)(N)C(=O)O

Sequences of proteins named here, by UniProt entry; tags and fusion partners are left off. Residues count along the entry.
UniProt P47871, 26-477: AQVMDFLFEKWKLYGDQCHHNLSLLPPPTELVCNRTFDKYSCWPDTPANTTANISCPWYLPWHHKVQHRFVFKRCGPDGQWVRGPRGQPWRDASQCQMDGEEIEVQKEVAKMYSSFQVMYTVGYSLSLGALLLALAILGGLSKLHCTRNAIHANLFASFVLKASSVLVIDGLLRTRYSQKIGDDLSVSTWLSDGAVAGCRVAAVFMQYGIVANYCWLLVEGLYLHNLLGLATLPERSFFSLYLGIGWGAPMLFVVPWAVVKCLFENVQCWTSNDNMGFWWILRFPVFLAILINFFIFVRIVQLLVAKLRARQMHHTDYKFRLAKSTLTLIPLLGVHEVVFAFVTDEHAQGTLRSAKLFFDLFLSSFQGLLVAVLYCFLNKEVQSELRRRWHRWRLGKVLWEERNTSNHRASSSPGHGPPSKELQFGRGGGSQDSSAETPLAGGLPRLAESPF

What was measured:
[1] = biological target: T1, human glucose-dependent insulinotropic peptide receptor (GIPR) (Homo sapiens, UniProt P48546); assay: cAMP assay, human GIPR cells; type: cell-based
T1 construct: expressed in transfected cells
T1 sequence (P48546 22-466): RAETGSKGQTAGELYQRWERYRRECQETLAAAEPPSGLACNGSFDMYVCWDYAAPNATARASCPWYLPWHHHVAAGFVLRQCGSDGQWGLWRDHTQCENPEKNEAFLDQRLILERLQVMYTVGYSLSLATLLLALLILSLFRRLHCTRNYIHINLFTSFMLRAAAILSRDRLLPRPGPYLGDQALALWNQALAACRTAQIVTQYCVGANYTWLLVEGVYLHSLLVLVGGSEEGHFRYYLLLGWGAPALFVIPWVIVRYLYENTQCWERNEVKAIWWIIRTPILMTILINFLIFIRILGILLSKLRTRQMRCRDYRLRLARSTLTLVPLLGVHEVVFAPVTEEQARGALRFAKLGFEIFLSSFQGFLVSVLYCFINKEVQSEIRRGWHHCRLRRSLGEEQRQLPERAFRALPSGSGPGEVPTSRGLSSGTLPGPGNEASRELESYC
Experimental: (§1) Sample dilutions are made in duplicate.
(§2) A frozen cryo-vial of cells expressing the receptor of interest is thawed rapidly in a water-bath, transferred to pre-warmed assay buffer and spun at 240×g for 5 minutes. Cells are re-suspended in assay buffer at a batch-dependent optimized concentration (e.g. hGCGR cells at 2×10^5 cells/ml, hGLP-1R and hGIPR cells at 1×10^5 cells/ml).
(§3) To this, 5 μL cell suspension is added and the plates incubated at room temperature for 30 minutes.
(§4) cAMP levels are measured using a commercially available cAMP dynamic 2 HTRF kit (Cisbio, Cat #62AM4PEJ), following the two step protocol as per manufacturer's recommendations. In brief; anti-cAMP cryptate (donor fluorophore) and cAMP-d2 (acceptor fluorophore) are made up separately by diluting each 1/20 in conjugate & lysis buffer provided in the kit. 5 μL anti-cAMP cryptate is added to wells of the assay plate, and 5 μL cAMP-d2 is added to wells except non-specific binding (NSB) wells, to which conjugate and lysis buffer are added. […] EC50 values of the synthetic peptides determined in cAMP assays are then determined.
(§5) Data is transformed to % Delta F as described in the manufacturer's guidelines and analyzed by 4-parameter logistic fit to determine EC50 values. […] To compare the balance of activities at the GLP-1R and GCGR between different peptides and across different conditions, these can be correlated, where the EC50's are related to those of comparator peptides.

[2] = biological target: T2, human glucagon receptor (GCGR) (Homo sapiens, UniProt P47871); assay: cAMP assay, human GCGR cells; type: cell-based
T2 construct: expressed in transfected cells
Experimental: as §1, §2, §3, §4, §5

[3] = bis-lipidated peptides, second replicate, read-out: Primary assay EC50 GIP-R (n2)
[4] = bis-lipidated peptides, second replicate, read-out: Primary assay EC50 Gluc-R (n2)

Row | SMILES | EC50 ([1]; bis-lipidated peptides, first replicate, read-out: Primary assay EC50 GIP-R (n1)) [nM] | EC50 [1, 3] [nM] | EC50 ([2]; bis-lipidated peptides, first replicate, read-out: Primary assay EC50 Gluc-R (n1)) [nM] | EC50 [2, 4] [nM] | EC50 ([1]; tris-lipidated peptides, second replicate, read-out: Primary assay EC50 GIP-R (n2)) [nM] | EC50 ([2]; tris-lipidated peptides, second replicate, read-out: Primary assay EC50 Gluc-R (n2)) [nM]
1 | CC[C@H](C)[C@H](NC(=O)[C@H](Cc1ccccc1)NC(=O)[C@H](CCC(=O)O)NC(=O)C(C)(CCCCN)NC(=O)[C@H](C)NC(=O)[C@H](C)NC(=O)[C@H](CCC(=O)O)NC(=O)CNC(=O)[C@H](CCC(=O)O)NC(=O)[C@H](CC(C)C)NC(=O)[C@H](Cc1ccc(O)cc1)NC(=O)[C@H](CO)NC(=O)[C@H](CO)NC(=O)[C@H](CCCCNC(=O)COCCOCCNC(=O)COCCOCCNC(=O)CC[C@H](NC(=O)CCCCCCCCCCCCCCC(=O)O)C(=O)O)NC(=O)[C@H](CC(=O)O)NC(=O)[C@H](CO)NC(=O)[C@@H](NC(=O)C(C)(Cc1ccccc1)NC(=O)[C@H](CO)NC(=O)CNC(=O)[C@H](CCC(=O)O)NC(=O)C(C)(C)NC(=O)[C@@H](N)Cc1c[nH]cn1)[C@@H](C)O)C(=O)N[C@@H](CCCCNC(=O)COCCOCCNC(=O)COCCOCCNC(=O)CC[C@H](NC(=O)CCCCCCCCCCCCCCC(=O)O)C(=O)O)C(=O)N[C@@H](Cc1c[nH]c2ccccc12)C(=O)N[C@H](C(=O)N[C@H](C(=O)N[C@@H](CCC(=O)O)C(=O)NCC(=O)NCC(N)=O)C(C)C)C(C)C (stereo partly drawn) [compound 259] (H-H[Aib]EGS[ξαMeF]TSDK([AEEA-AEEA-γGlu-C16 diacid])SSYLEGEAA[ξαMeK]EFIK([AEEA-AEEA-γGlu-C16 diacid])WVVEGG-NH2; N-terminus assumed) | 21.4 | 21.4 | 21.4 | 21.4 | – | –
2 | CC[C@H](C)[C@H](NC(=O)[C@H](Cc1ccccc1)NC(=O)[C@H](CCC(=O)O)NC(=O)[C@](C)(CCCCN)NC(=O)[C@H](C)NC(=O)[C@H](C)NC(=O)[C@H](CCC(=O)O)NC(=O)CNC(=O)[C@H](CCC(=O)O)NC(=O)[C@H](CC(C)C)NC(=O)[C@H](Cc1ccc(O)cc1)NC(=O)[C@H](CO)NC(=O)[C@H](CO)NC(=O)[C@H](CCCCNC(=O)COCCOCCNC(=O)COCCOCCNC(=O)CC[C@H](NC(=O)CCCCCCCCCCCCCCC(=O)O)C(=O)O)NC(=O)[C@H](CC(=O)O)NC(=O)[C@H](CO)NC(=O)[C@@H](NC(=O)[C@](C)(Cc1ccccc1)NC(=O)[C@H](CO)NC(=O)CNC(=O)[C@H](CCC(=O)O)NC(=O)C(C)(C)NC(=O)[C@@H](N)Cc1c[nH]cn1)[C@@H](C)O)C(=O)N[C@@H](C)C(=O)N[C@@H](Cc1c[nH]c2ccccc12)C(=O)N[C@@H](CCCCNC(=O)COCCOCCNC(=O)COCCOCCNC(=O)CC[C@H](NC(=O)CCCCCCCCCCCCCCC(=O)O)C(=O)O)C(=O)N[C@H](C(=O)N[C@@H](CCC(=O)O)C(=O)NCC(=O)NCC(N)=O)C(C)C [compound 261] (H-H[Aib]EGS[αMeF]TSDK([AEEA-AEEA-γGlu-C16 diacid])SSYLEGEAA[αMeK]EFIAWK([AEEA-AEEA-γGlu-C16 diacid])VEGG-NH2; N-terminus assumed) | – | 23 | – | 23 | – | –
3 | CC[C@H](C)[C@H](NC(=O)[C@H](Cc1ccccc1)NC(=O)[C@H](CCC(=O)O)NC(=O)[C@](C)(CCCCN)NC(=O)[C@H](C)NC(=O)[C@H](C)NC(=O)[C@H](CCC(=O)O)NC(=O)CNC(=O)[C@H](CCC(=O)O)NC(=O)[C@H](CC(C)C)NC(=O)[C@H](CCCCNC(=O)COCCOCCNC(=O)COCCOCCNC(=O)CC[C@H](NC(=O)CCCCCCCCCCCCCCC(=O)O)C(=O)O)NC(=O)[C@H](CO)NC(=O)[C@](C)(CO)NC(=O)[C@@H](NC(=O)[C@H](CC(=O)O)NC(=O)[C@H](CO)NC(=O)[C@@H](NC(=O)[C@](C)(Cc1ccccc1)NC(=O)[C@H](CO)NC(=O)CNC(=O)[C@H](CCC(=O)O)NC(=O)C(C)(C)NC(=O)[C@@H](N)Cc1c[nH]cn1)[C@@H](C)O)C(C)C)C(=O)N[C@@H](CCCCNC(=O)COCCOCCNC(=O)COCCOCCNC(=O)CC[C@H](NC(=O)CCCCCCCCCCCCCCC(=O)O)C(=O)O)C(=O)N[C@@H](Cc1c[nH]c2ccccc12)C(=O)N[C@H](C(=O)N[C@H](C(=O)N[C@@H](CCC(=O)O)C(=O)NCC(=O)NCC(N)=O)C(C)C)C(C)C [compound 265] (H-H[Aib]EGS[αMeF]TSDV[αMeS]SK([AEEA-AEEA-γGlu-C16 diacid])LEGEAA[αMeK]EFIK([AEEA-AEEA-γGlu-C16 diacid])WVVEGG-NH2; N-terminus assumed) | – | 21.6 | – | 21.6 | – | –
4 | CCCCCCCCCCCC(=O)N[C@@H](CCC(=O)NCCOCCOCC(=O)NCCOCCOCC(=O)NCCCC[C@H](NC(=O)[C@H](Cc1ccc(O)cc1)NC(=O)[C@H](CO)NC(=O)[C@](C)(CO)NC(=O)[C@@H](NC(=O)[C@H](CC(=O)O)NC(=O)[C@H](CO)NC(=O)[C@@H](NC(=O)[C@](C)(Cc1ccccc1)NC(=O)[C@H](CO)NC(=O)CNC(=O)[C@H](CCC(=O)O)NC(=O)C(C)(C)NC(=O)[C@@H](N)Cc1c[nH]cn1)[C@@H](C)O)C(C)C)C(=O)N[C@@H](CCC(=O)O)C(=O)NCC(=O)N[C@@H](CCC(=O)O)C(=O)N[C@@H](C)C(=O)N[C@@H](C)C(=O)N[C@@](C)(CCCCN)C(=O)N[C@@H](CCC(=O)O)C(=O)N[C@@H](Cc1ccccc1)C(=O)N[C@H](C(=O)N[C@@H](C)C(=O)N[C@@H](Cc1c[nH]c2ccccc12)C(=O)N[C@@H](CCCCNC(=O)COCCOCCNC(=O)COCCOCCNC(=O)CC[C@H](NC(=O)CCCCCCCCCCC)C(=O)O)C(=O)N[C@H](C(=O)N[C@@H](CCC(=O)O)C(=O)NCC(=O)NCC(N)=O)C(C)C)[C@@H](C)CC)C(=O)O [compound 270] (H-H[Aib]EGS[αMeF]TSDV[αMeS]SYK([AEEA-AEEA-γGlu-Lauroyl])EGEAA[αMeK]EFIAWK([AEEA-AEEA-γGlu-Lauroyl])VEGG-NH2; N-terminus assumed) | – | 22.3 | – | 22.3 | – | –
5 | CCCCCCCCCCCC(=O)N[C@@H](CCC(=O)NCCOCCOCC(=O)NCCOCCOCC(=O)NCCCC[C@H](NC(=O)CNC(=O)[C@H](CCC(=O)O)NC(=O)[C@H](CC(C)C)NC(=O)[C@H](CCCCNC(=O)COCCOCCNC(=O)COCCOCCNC(=O)CC[C@H](NC(=O)CCCCCCCCCCC)C(=O)O)NC(=O)[C@H](CO)NC(=O)[C@](C)(CO)NC(=O)[C@@H](NC(=O)[C@H](CC(=O)O)NC(=O)[C@H](CO)NC(=O)[C@@H](NC(=O)[C@](C)(Cc1ccccc1)NC(=O)[C@H](CO)NC(=O)CNC(=O)[C@H](CCC(=O)O)NC(=O)C(C)(C)NC(=O)[C@@H](N)Cc1c[nH]cn1)[C@@H](C)O)C(C)C)C(=O)N[C@@H](C)C(=O)N[C@@H](C)C(=O)N[C@@](C)(CCCCN)C(=O)N[C@@H](CCC(=O)O)C(=O)N[C@@H](Cc1ccccc1)C(=O)N[C@H](C(=O)N[C@@H](C)C(=O)N[C@@H](CCCCNC(=O)COCCOCCNC(=O)COCCOCCNC(=O)CC[C@H](NC(=O)CCCCCCCCCCC)C(=O)O)C(=O)N[C@H](C(=O)N[C@H](C(=O)N[C@@H](CCC(=O)O)C(=O)NCC(=O)NCC(N)=O)C(C)C)C(C)C)[C@@H](C)CC)C(=O)O [compound 464] (H-H[Aib]EGS[αMeF]TSDV[αMeS]SK([AEEA-AEEA-γGlu-Lauroyl])LEGK([AEEA-AEEA-γGlu-Lauroyl])AA[αMeK]EFIAK([AEEA-AEEA-γGlu-Lauroyl])VVEGG-NH2; N-terminus assumed) | – | – | – | – | 20.2 | 20.2
